This note sets out measurements from patent US20240150396A1 (The Texas A&M University System, priority 2021, published 2024).

Data set [1] deals with T. cruzi epimastigotes (strain Y). Nature of the data set: Growth of axenic cultures of T. cruzi epimastigotes. As to conditions: more active than K11777.
Data set [2] is described as follows: Thiolation of inhibitors with glutathione, LCMS. It counts as physicochemical. As to conditions: for fraction of glutathione adduct: at equilibrium, of the inputted reactants; for Keq of glutathione adduct formation: 1 mM glutathione, Tris pH 8.0. Here is the method:
Samples were analyzed by HPLC-MS (as described above) by injecting 0.01 mL aliquots onto a Luna […] C18(2) 100 Å, 4.6 mm, 50 mm column (Phenomenex) using the HPLC method described in the chemistry section at 0-6 h time points. […] Integration of the chromatographic peaks of the inhibitors and their GSH adducts at each time point was used to determine the rate of GSH adduct formation.

Each structure is given as a SMILES string.

As for `C[C@@H](/C=C/c1ncccn1)NC(=O)[C@H](Cc1ccccc1)NC(=O)OCc1ccccc1` [Compound 10, Benzyl ((S)-1-Oxo-3-phenyl-1-(((S,E)-4-(pyrimidin-2-yl)but-3-en-2-yl)amino)propan-2-yl)carbamate], the “activity relative to K11777” value in data set [1] is on record as not below 10 fold.

Regarding `C[n+]1ccccc1/C=C/[C@H](Cc1ccccc1)NC(=O)[C@H](Cc1ccccc1)NC(=O)OCc1ccccc1.[I-]` [Compound 12, 2-((S,E)-3-((S)-2-(((Benzyloxy)carbonyl)amino)-3-phenylpropanamido)-4-phenylbut-1-en-1-yl)-1-methylpyridin-1-ium Iodide], the “activity relative to K11777” value in data set [1] is given as not below 10 fold. For the same compound, the “fraction of glutathione adduct” value in data set [2] was 62%.

Consider `C[n+]1ccccc1/C=C/[C@H](CCc1ccccc1)NC(=O)[C@H](Cc1ccccc1)NC(=O)OCc1ccccc1` [Compound 15, 2-((S,E)-3-((S)-2-(((Benzyloxy)carbonyl)amino)-3-phenylpropanamido)-5-phenylpent-1-en-1-yl)-1-methylpyridin-1-ium], for which the “activity relative to K11777” value in data set [1] is given as not below 10 fold. Further, the “Keq of glutathione adduct formation” value in data set [2] was found to be 2400 M⁻¹.

Consider `C[n+]1ccsc1/C=C/[C@H](Cc1ccccc1)NC(=O)[C@H](Cc1ccccc1)NC(=O)OCc1ccccc1.[I-]` [Compound 26, 2-((S,E)-3-((S)-2-(((Benzyloxy)carbonyl)amino)-3-phenylpropanamido)-4-phenylbut-1-en-1-yl)-3-methylthiazol-3-ium Iodide], for which the “Keq of glutathione adduct formation” value in data set [2] turned out to be 930 M⁻¹.

Consider `CN1CCN(C(=O)N[C@@H](Cc2ccccc2)C(=O)N[C@H](/C=C/S(=O)(=O)c2ccccc2)CCc2ccccc2)CC1` [Compound K11777, reference compound], for which, in data set [2], the “Keq of glutathione adduct formation” value was determined as 160 M⁻¹ and the “fraction of glutathione adduct” value is given as 17%.
